# Measurements as given in patent US20120283193A1, “MANIPULATION OF BRAIN IN A CIRCUIT-SPECIFIC MANNER” (priority 2009, published 2012).
# Tested on: Xenopus larvae
# Experiment: Skin pigmentation adaptation to illumination/background in larvae
# Type: in vivo
# Details: D2 receptor agonist
# Protocol: Illumination experiments. The optimal condition for altering skin pigmentation and numbers of TH neurons were determined by raising larvae under two illumination conditions. In the first, larvae were placed on black, grey or white backgrounds (corresponding to N2.25, N7.25 or N9.5 on the Munsell neutral value scale of a monochromatic colour wheel) with constant illumination (331 lux (lx)). In the second, larvae on a white, grey or black background were exposed to constant illumination (6,560 lx, measured with a light meter (Sper Scientific)-equivalent to shady illumination on a sunny day), or to constant dark or to 12 h light/12 h dark. […]. Subsequently, when testing the effect of light on pigmentation or the numbers of TH neurons, animals were usually raised in the dark (stages 35-42) and exposed (typically for 2 h at stage 42) to these optimal conditions. For some tests of the functional significance of newly TH neurons, animals were raised under different light/background conditions and a conditioning step of 30 min light/white background exposure was imposed to achieve similar levels of skin pigmentation before comparing light or dark adaptation between these groups.
# Neuropharmacology. […] For selective ablation of VSCDA neurons, MPTP was bath-applied in the dark to larvae for 8 h at stage 41. 100 mM deprenyl (Sigma) was bath-applied to inhibit monoamine oxidase.
smiles,measurement,value
CCCN1CCC[C@@H]2Cc3n[nH]cc3C[C@H]21.Cl [guinpirole hydrochloride],blanching effect on dark-adapted larvae remaining in the dark after bilateral eye enucleation,persisted to the same extent
